# Data reported in PubChem BioAssay AID901 (National Center for Advancing Translational Sciences (NCATS), 2007).
# This is one part of the list. Shown are side measurements of this screen, not its main read-out; they come without a call. Most of these compounds were active or inconclusive in the main read-out, so they are no random draw. Words in brackets tell the shape of the fitted curve; partial curves, single points and poor fits give uncertain potencies.
# Assay: qHTS Assay for Identifying the Cell-Membrane Permeable IMPase Inhibitors
# Conditions: CHO-M1 cells, IP1 accumulation, HTRF TR-FRET ratio; measured here: donor channel 620 nm AC50
# Text: NCGC IMPase Assay Overview
# Lithium has been widely used for the treatment of bipolar disorder. But lithium has a narrow therapeutic index and it can cause side effects such as thirst, weight gain, tremor, polyuria and memory problems. Although the mechanism for lithium action in treatment of bipolar disorder is still not fully understood, inhibition of inositol monophosphatase (IMPase) and the subsequent depletion of the inositol pool in living cells have been implicated as the primary therapeutic benefit of lithium therapy. Therefore, a selective IMPase inhibitor with reduced side effects might be a good drug candidate to replace lithium for the treatment of bipolar disorder. Several IMPase inhibitors have been discovered previously. However, they are not suitable for therapeutic use because of their poor cell membrane penetrability or oral bioavailability; the development of new cell-permeable IMPase inhibitors is needed.
# IMPase catalyzes the hydrolysis of inositol-1-phosphate (IP1) to release free inositol. Binding of an agonist to a Gq coupled GPCR results in the activation of PLC, which hydrolyzes the PIP2 to form inositol-1,4,5-trisphosphate (IP3) and diacyl glycerol (DAG). While DAG activates protein kinase C (PKC), IP3 triggers the elevation of intracellular free Ca2+. The IP3 is very rapidly inactivated by hydrolysis to IP2, IP1 and then inositol by a series of enzymes including IMPase. Free inositols are used for synthesis of PI and thus start another inositol cycle.
# To identify new cell-permeable IMPase inhibitors, we developed a cell-based IMPase assay in which the cytosolic IP1 is measured by a time-resolved fluorescence resonance energy transfer (TR-FRET) assay. In this assay, an IP1 specific antibody is used to detect the labeled IP1 tracer. When the cell lysate contains the elevated IP1 due to the inhibition of IMPase, the TR-FRET between the labeled antibody and IP1 tracer is disrupted resulting in a reduction in the total signal. Since the TR-FRET is used, this cell-based assay is a homogenous assay without cell wash and medium change that is suitable for assay miniaturization and HTS.
# NCGC IMPase Assay Protocol Summary
# A Chinese hamster ovary (CHO) cell line stably expressing the M1 receptor (CHO-M1) was obtained from ATCC and maintained in F-12 Kaighn's media (Invitrogen, Carlsbad, CA, 21127) supplemented with 10 % FBS, 100 units/ml penicillin, 100 ug/ml streptomycin and 250 ug/ml geneticin at 37C, 5% CO2 in a humidified atmosphere. Before the assay, aliquots of cells were frozen and stored at -135C. The assay was performed in 1536-well format. Data are reported for both the ratio of the two emission wavelengths, and also for the component 'donor' channel, Em2=620. […] AC50 values were determined from concentration-response data modeled with the standard Hill equation.
# IMPase 1536-well assay protocol:
# (1) Plate 4 ul/well (2000 cells) of cell suspension from frozen CHO-M1 Cells in white, tissue culture treated 1536-well plates that are cultured at 37C, 5 % CO2 for 16 to 30 hours.
# (2) Add 23 nl/well of compound in DMSO solution. The final titration for each compound was between 0.6 nM and 46 uM.
# (3) Add 1 ul of carbachol (50 uM in stimulation buffer containing10mM HEPES, 1mM CaCl2, 0.5 mM MgCl2, 4.2 mM KCl, 146 mM NaCl, 5.5 mM glucose, 50mM LiCl, pH 7.4.
# (4) Incubation at 37C, 5 % CO2 for 30 min.
# (5) Add 1 ul/well of d2-conjugated IP1 (d2-IP1) and 1 ul/well of Eu+ cryptate conjugated anti-IP1 antibody (Eu+-Ab) prepared in the cell lysis buffer, both from the IP-One kit (Cisbio, MA).
# (6) Incubate at room temperature for 10 minutes.
# (7) Detect the assay plate (Ex = 320, Em1 =665 and Em2 620) in a ViewLux plate reader.
# inositol monophosphatase, IMPase, IMPase inhibitor, lithium, bipolar disorder, IP-One, HTRF, qHTS, NIH roadmap, NCGC
# Note: In the gene ID and protein GI references for this assay, rat IMPase is referenced instead of hampster as hamster accession numbers were not available.
row,Structure (SMILES),AC50
1,CCCN(C(=O)Cc1c(C(=O)O)[nH]c2ccc(Cl)cc12)c1ccc(OCC)cc1,"0.0282 µM [falling, full curve, poor fit]"
2,CCCCCn1c(CCNC(=O)CCC)nc2ccccc21,"5.01 µM [rising, partial curve]"
3,COc1ccc(OC)c(C2C(C(=O)c3cc4ccccc4o3)=C(O)C(=O)N2c2cc(C)on2)c1 (configuration not stated),"12.6 µM [rising, partial curve]"
4,O=C(NC1=NCCS1)C1COc2ccccc2O1 (configuration not stated),"31.6 µM [falling, single point]"
5,N#Cc1c(C(F)(F)F)cc(-c2ccc(Cl)c(Cl)c2)nc1SCCN1CCOCC1,"0.0316 µM [rising, full curve, poor fit]"
6,Cc1nc2ccc(NC(=S)N3CCN(c4ccccn4)CC3)cc2nc1C,"31.6 µM [rising, single point]"
7,Cc1ccc(CN(C)C(=O)C2CCCN2C(=O)c2cccs2)o1 (configuration not stated),"0.316 µM [falling, full curve]"
8,C[N+](C)(C)CCCC(=O)c1ccc2c(c1)OCO2,"12.6 µM [falling, partial curve]"
9,Cc1ccc2cc(C(c3nnnn3C(C)(C)C)N3CCCCCC3)c(=O)[nH]c2c1 (configuration not stated),"0.794 µM [rising, single point]"
10,O=c1cc(CSc2nnc(-c3ccco3)o2)c2ccccc2[nH]1,"31.6 µM [falling, single point]"
11,CC(C)n1c(SCc2cc(=O)[nH]c3ccccc23)nc2c1c(=O)n(C)c(=O)n2C,"3.16 µM [falling, partial curve, poor fit]"
12,O=C(Cc1ccccc1)Nc1nc(=O)c2ccccc2s1,"31.6 µM [rising, single point]"
13,O=C(Nc1nc(-c2nc3ccccc3s2)cs1)C1COc2ccccc2O1 (configuration not stated),"22.4 µM [rising, single point]"
14,CCOC(=O)Cc1cnc(NC(=O)Cn2nnc(-c3ccc(OCC)cc3)n2)s1,"20 µM [falling, partial curve, poor fit]"
15,COC(=O)c1ccc(CC(=O)c2ccc(O)cc2O)o1,"0.00501 µM [falling, full curve, poor fit]"
16,CCOC(=O)c1nnc(-c2ccccc2)nc1Oc1ccccc1Cl,"20 µM [falling, single point]"
17,CCOC(=O)c1nc(Nc2ccc(C(=O)OC)cc2)c2ccccc2n1,"25.1 µM [rising, single point]"
18,Nc1ccc2nc(-c3ccc(O)cc3)sc2c1,"11.2 µM [rising, single point]"
19,CCCCNc1cc(=O)n(C)c(=O)n1C,"31.6 µM [falling, single point]"
20,CCc1cccc(C)c1NC(=O)C(c1ccc(O)cc1)N1CCC1=O (configuration not stated),"1.58 µM [rising, partial curve]"
21,Cc1nnc(SCC(=O)N2CCC(C(N)=O)CC2)s1,"0.316 µM [rising, partial curve]"

# Single values from the entries so far.
# For AC50, Nc1ccc2nc(-c3ccc(O)cc3)sc2c1 has 11.2 µM [rising, single point]
# For AC50, CCOC(=O)c1nc(Nc2ccc(C(=O)OC)cc2)c2ccccc2n1 has 25.1 µM [rising, single point]
# For AC50, CCOC(=O)c1nnc(-c2ccccc2)nc1Oc1ccccc1Cl has 20 µM [falling, single point]

# Further entries

row,Structure (SMILES),AC50
1,O=C(CN1CCN(c2ccccn2)CC1)Nc1cc(C(F)(F)F)ccc1Cl,"0.0251 µM [rising, full curve, poor fit]"
2,CN(C)Cc1c(O)c(Cl)cc2c3c(c(=O)oc12)CCCC3,"2.51 µM [rising, partial curve]"
3,Cc1ccc(NC(=O)c2cccc(N3C(=O)C4C5CCC(C5)C4C3=O)c2)c(C)c1 (configuration not stated),"35.5 µM [rising, single point]"
4,Cc1cc(Br)c2nc3c(c(C(=O)O)c2c1)CCCCC3,"12.6 µM [rising, partial curve]"
5,COc1ccc(-c2cc(C(F)(F)F)nc(SCC(=O)N3CCCCC3C)n2)cc1OC (configuration not stated),"5.62 µM [falling, single point]"
6,CCOC(=O)c1c(N)sc2c(OC)c(Br)ccc12,"0.00794 µM [falling, full curve, poor fit]"
7,CCN(CC)Cc1c(NC(=O)c2ccc(OC)cc2)sc2c1CCCC2,"0.158 µM [falling, full curve, poor fit]"
8,COc1ccccc1C/C(N)=N/OC(=O)COc1ccc2ccccc2c1,"3.98 µM [rising, full curve]"
9,Cc1ccc(-c2cc(C#N)c(=O)n(Cc3c(Cl)cccc3Cl)c2)cc1,"0.02 µM [rising, full curve, poor fit]"
10,Cc1cccc2cc(C#N)c(NCCNC(=O)NC3CCCCC3)nc12,"31.6 µM [rising, single point]"
11,COc1ccc(C2CC(C(F)(F)F)n3ncc(C(=O)NCC4CCCO4)c3N2)cc1OC (configuration not stated),"0.501 µM [rising, full curve, poor fit]"
12,O=C(Nc1nnc(-c2ccc3c(c2)CCCC3)o1)c1ccccc1,"39.8 µM [falling, partial curve, poor fit]"
13,CCc1cc(-c2[nH]ncc2-c2ccc3c(c2)OCO3)c(O)cc1O,"6.31 µM [falling, single point]"
14,COc1ccc(NC(=O)CN2CCN(CC(=O)Nc3ccccc3F)CC2)cc1OC,"0.00794 µM [falling, full curve, poor fit]"
15,CCOc1ccc(C(=O)NC2CCN(S(=O)(=O)CC)CC2)cc1,"3.16 µM [falling, partial curve, poor fit]"
16,Brc1ccc2c(c1)C(c1cccs1)=NNC(c1cccnc1)=N2,"31.6 µM [rising, single point]"
17,CC(C)CCN1C(=O)c2ccc(-c3nc4ccccc4c(=O)o3)cc2C1=O,"6.31 µM [rising, single point]"
18,CCOC(=O)c1cccc(NC(=O)CSc2nc3cc4ccccc4cc3[nH]2)c1,"3.16 µM [falling, single point]"
19,Cc1ccc(-c2noc(CCC(=O)N(C)c3ccccc3C)n2)cc1,"5.01 µM [rising, partial curve, poor fit]"
20,Cc1cc2c(c(=O)n1CCCn1ccnc1)C(c1ccco1)C(C#N)=C(N)O2 (configuration not stated),"3.16 µM [rising, single point]"
21,Cc1nn(Cc2cccc(C(=O)Nc3ccn(Cc4ccccc4)n3)c2)c(C)c1[N+](=O)[O-],"2 µM [falling, partial curve]"
